Test [1] concerns the target NKG2D receptor (human) (UniProt P26718). Put plainly: co-immunoprecipitation from tumor line lysates, immunoblot. On the technique in general: A western blot detects proteins with antibodies after separation by electrophoresis.
The target is the same in test [2]. As to the kind of experiment: co-immunoprecipitation with anti-NKG2D mAb 5C6, immunoblot for DAP10.

Sequences of proteins named here, by UniProt entry; tags and fusion partners are left off.
UniProt P26718: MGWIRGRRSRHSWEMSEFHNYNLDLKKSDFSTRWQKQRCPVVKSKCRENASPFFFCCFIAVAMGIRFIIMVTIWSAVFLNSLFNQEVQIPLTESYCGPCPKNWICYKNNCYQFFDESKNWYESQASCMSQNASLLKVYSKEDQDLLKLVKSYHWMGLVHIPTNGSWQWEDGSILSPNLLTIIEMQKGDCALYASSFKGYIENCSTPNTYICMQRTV

No constants are given. Whether binding was seen depends on the method and setting. Binding seen in cells or lysates may run through a third protein. Some entries that bind do so weakly or less than the wild type.

From patent publication US20190048079A1 come the findings set out here.

B1: DAP10 signaling adaptor (protein, human, UniProt Q9UBK5 19-93, looked up)
chain: QTTPGERSSLPAFYPGTSGSCSGCGSLSLPLLAGLVAADAVASLLIVGAVFLCARPRRSPAQEDGKVYINMPGRG
Turning to B1, the binding result in the test with NKG2D receptor (human) [1] and with NKG2D receptor (human) [2] was “binds” each time.
